At least one compound was matched to its structure with a doubt left.
Experiments:
[1] = test system: cardiomyocyte-like cells (iCell Cardiomyocyte2); assay: Action potential recording from cardiomyocytes on collagen-coated conductive glass, charge amplifier (CHAMPL) mode; format: cell-based; conditions: final concentration 100 μM in saline, room temperature
[2] = test system: NG108-15 cells; assay: Intracellular potential recording in differentiated cultured nerve cells with MagEle not isolated from external fluid; format: cell-based; conditions: 20 μM; cells differentiated 3 weeks with Forskolin
Description: In this experiment, the cultured nerve cells (NG108-15 cells) used in Example 3 were induced and differentiated into nerves under the same differentiation conditions as in the experiment example 3. In the same manner as in Example 3, the MagEle (magnet electrode) is moved from above the target cell toward the cell, and the conductive gold-coated magnetic nanoparticles adsorbed on the MagEle are adhered to the cell membrane to penetrate it. Then, the intracellular potential was measured by connecting the MagEle to the (+) pole and a conductor provided on an insulator (parafilm film) that completely covers the upper surface of the MagEle to the ground. At that time, although the insulator completely covered the top and sides of the (+) pole MagEle, the surface facing the cover glass, to which the cells adhere was not covered, and the cells were not isolated from the external fluid (FIG. 19).
The NG108-15 cells were differentiated by culturing for 3 weeks in DMEM/HAT medium containing 2% FBS supplemented with Forskolin (10 μM).

COc1ccc(C(=O)O[C@H]2CC[C@@]3(C)[C@@H]4CC[C@H]5[C@]6(O)C[C@H](O)[C@@]7(O)[C@@H](CN8C[C@@H](C)CC[C@H]8[C@@]7(C)O)[C@]6(O)C[C@@]53O[C@]24O)cc1OC [Veratridine]
induction of action potentials ([1]; after the initial slow depolarization): followed by spontaneous action potentials
membrane potential change after veratridine administration ([1]; no spontaneous action potential before administration): Slow depolarization was observed in the first 40 seconds
spontaneous action potential [2]: induced
